Test results taken from the supplement of paper PMC12067093, “Discovery and optimisation of a covalent ligand for TRIM25 and its application to targeted protein ubiquitination” (Chemical Science, 2025).
This is one part of the list.

Sequences of proteins named here, by UniProt entry; tags and fusion partners are left off. A change or cut given only in a name is not applied to a line headed by its entry.
UniProt P50452: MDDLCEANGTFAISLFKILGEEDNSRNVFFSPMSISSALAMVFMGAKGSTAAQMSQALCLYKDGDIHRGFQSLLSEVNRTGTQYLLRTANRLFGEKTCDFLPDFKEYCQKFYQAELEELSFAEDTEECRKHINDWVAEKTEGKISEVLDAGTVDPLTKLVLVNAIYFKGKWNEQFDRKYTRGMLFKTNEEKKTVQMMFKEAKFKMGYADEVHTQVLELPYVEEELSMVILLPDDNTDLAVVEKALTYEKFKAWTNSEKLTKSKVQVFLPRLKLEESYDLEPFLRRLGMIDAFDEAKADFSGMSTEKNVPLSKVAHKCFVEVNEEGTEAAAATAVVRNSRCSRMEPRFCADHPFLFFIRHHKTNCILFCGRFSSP
UniProt Q96ST3: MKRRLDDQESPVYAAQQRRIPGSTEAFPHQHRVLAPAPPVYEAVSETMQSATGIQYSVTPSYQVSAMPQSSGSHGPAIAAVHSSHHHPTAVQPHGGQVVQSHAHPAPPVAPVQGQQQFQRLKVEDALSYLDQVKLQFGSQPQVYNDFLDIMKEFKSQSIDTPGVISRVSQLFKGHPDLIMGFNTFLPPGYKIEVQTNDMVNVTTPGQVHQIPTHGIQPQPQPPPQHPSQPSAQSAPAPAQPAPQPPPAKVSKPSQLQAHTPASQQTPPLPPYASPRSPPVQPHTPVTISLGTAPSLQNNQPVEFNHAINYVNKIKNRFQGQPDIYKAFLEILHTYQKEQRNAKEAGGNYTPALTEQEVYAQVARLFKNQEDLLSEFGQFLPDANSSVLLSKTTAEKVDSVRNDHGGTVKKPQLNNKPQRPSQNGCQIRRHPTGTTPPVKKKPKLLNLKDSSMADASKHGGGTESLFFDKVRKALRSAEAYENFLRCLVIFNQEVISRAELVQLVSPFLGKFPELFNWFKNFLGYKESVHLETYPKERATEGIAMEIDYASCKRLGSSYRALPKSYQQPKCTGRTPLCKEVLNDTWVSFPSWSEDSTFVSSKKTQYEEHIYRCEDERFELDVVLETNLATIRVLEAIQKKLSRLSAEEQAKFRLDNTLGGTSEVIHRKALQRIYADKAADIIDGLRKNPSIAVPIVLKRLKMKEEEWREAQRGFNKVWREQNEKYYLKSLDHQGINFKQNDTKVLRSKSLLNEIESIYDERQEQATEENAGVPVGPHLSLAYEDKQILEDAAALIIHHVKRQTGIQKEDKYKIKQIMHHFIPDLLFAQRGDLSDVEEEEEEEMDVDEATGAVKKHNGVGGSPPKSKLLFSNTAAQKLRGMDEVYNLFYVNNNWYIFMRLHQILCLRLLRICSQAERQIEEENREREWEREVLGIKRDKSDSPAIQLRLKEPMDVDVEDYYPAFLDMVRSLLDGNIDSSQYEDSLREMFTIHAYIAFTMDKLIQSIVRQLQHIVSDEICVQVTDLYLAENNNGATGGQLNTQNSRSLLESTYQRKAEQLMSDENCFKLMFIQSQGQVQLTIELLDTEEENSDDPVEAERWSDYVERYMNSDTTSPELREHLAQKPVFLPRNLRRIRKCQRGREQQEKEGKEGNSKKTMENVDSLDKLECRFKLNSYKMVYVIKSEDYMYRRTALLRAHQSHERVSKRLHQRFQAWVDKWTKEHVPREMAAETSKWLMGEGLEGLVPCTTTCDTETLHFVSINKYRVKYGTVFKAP
UniProt P63208, whole entry, looked up: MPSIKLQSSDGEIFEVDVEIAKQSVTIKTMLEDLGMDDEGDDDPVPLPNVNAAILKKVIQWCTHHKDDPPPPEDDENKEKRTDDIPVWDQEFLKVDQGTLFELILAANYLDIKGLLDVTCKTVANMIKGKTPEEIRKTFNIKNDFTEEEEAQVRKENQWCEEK
UniProt Q8IX90, whole entry, looked up: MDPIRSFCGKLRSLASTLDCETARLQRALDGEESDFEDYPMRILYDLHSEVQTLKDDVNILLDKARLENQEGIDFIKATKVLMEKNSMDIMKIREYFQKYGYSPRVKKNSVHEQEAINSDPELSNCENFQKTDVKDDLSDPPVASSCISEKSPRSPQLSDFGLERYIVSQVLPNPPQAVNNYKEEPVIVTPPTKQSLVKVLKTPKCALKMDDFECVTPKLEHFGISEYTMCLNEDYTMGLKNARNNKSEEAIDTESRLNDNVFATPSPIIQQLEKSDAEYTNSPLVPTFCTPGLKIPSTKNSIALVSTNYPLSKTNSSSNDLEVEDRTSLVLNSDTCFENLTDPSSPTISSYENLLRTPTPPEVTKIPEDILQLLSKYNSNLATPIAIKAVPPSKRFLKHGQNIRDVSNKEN
UniProt P53007, whole entry, looked up: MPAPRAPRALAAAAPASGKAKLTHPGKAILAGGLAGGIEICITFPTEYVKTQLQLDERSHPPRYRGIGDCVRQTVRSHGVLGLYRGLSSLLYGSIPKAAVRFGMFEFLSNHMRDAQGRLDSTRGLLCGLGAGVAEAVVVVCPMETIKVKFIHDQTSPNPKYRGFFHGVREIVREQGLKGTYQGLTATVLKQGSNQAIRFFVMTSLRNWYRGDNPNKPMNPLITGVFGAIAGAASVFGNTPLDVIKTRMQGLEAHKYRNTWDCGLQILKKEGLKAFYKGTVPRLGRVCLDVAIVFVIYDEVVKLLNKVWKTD
UniProt Q9BYW2: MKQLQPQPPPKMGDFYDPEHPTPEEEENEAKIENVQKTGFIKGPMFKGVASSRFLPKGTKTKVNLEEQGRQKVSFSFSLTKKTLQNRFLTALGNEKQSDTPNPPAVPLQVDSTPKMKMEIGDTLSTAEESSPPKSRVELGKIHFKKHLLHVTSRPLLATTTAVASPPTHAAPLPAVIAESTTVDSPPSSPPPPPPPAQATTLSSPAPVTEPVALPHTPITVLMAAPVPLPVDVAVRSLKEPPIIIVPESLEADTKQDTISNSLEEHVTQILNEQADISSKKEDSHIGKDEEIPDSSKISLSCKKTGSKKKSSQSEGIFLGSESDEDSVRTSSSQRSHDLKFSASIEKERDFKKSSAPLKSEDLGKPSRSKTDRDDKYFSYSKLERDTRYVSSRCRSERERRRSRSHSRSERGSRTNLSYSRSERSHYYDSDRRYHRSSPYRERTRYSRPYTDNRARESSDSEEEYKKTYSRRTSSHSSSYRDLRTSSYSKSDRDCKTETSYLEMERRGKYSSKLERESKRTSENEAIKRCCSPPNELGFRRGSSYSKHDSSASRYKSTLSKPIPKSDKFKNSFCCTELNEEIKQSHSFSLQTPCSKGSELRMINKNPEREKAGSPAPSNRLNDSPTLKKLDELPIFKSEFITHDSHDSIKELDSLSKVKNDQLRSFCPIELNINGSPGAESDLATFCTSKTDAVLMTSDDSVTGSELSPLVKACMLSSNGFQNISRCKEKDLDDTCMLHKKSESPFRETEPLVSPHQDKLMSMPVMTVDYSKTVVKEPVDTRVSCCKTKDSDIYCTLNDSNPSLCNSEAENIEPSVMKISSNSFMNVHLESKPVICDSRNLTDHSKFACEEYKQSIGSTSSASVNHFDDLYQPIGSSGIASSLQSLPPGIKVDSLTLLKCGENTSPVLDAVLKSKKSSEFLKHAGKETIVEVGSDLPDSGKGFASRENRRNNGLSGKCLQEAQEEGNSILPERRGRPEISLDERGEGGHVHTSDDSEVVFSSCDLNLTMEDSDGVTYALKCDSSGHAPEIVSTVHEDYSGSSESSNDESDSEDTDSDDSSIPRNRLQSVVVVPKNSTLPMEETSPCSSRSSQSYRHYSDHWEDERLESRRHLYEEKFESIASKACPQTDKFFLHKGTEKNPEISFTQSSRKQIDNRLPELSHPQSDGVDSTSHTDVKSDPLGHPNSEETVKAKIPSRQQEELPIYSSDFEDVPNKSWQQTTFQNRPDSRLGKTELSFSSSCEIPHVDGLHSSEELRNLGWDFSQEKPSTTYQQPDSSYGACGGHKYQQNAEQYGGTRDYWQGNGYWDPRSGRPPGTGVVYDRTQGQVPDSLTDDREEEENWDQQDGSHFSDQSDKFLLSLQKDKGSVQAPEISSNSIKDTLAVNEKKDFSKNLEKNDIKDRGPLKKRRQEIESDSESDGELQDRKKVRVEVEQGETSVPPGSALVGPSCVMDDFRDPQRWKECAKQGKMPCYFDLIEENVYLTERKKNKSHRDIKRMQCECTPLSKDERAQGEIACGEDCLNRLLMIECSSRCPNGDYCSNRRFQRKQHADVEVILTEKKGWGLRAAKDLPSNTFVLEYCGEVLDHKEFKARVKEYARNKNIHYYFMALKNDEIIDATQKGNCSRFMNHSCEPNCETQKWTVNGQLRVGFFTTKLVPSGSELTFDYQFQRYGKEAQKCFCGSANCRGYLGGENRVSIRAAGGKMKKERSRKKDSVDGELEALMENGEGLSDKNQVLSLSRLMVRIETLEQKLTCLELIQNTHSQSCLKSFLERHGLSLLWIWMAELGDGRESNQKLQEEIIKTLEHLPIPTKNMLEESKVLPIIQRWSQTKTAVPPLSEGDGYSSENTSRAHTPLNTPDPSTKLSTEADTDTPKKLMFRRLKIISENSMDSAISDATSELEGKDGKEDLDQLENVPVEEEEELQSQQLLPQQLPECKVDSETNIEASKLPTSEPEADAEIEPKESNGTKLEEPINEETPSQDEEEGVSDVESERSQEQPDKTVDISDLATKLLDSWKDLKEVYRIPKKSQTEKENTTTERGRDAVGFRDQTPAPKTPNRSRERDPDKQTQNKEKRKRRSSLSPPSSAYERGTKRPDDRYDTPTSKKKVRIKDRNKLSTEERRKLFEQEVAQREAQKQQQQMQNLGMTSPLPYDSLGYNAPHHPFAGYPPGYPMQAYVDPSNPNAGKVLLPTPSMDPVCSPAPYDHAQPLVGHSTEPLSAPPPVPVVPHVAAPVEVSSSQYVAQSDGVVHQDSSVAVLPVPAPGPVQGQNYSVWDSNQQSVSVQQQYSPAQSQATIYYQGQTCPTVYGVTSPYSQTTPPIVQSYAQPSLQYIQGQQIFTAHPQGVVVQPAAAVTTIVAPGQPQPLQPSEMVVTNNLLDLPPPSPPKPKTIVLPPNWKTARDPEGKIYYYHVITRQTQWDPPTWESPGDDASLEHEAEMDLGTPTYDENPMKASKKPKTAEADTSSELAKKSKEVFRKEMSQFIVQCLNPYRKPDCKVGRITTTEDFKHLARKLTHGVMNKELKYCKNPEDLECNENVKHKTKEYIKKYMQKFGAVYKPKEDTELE
UniProt P41440: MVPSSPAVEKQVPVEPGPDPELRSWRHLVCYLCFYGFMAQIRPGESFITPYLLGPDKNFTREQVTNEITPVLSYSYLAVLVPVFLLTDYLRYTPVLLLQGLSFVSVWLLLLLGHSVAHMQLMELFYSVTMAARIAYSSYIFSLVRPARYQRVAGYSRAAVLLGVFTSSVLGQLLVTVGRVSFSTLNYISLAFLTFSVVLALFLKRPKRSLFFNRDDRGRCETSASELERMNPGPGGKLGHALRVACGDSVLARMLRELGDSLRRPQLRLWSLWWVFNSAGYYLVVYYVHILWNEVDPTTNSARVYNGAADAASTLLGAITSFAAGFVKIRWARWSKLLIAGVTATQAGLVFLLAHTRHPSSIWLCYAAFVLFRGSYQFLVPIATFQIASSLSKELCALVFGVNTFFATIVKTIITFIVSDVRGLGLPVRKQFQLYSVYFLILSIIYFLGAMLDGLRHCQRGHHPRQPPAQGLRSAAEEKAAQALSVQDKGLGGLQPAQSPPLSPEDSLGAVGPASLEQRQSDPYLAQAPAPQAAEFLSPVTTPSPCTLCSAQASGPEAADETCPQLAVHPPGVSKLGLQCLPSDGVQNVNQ
UniProt Q5VUG0: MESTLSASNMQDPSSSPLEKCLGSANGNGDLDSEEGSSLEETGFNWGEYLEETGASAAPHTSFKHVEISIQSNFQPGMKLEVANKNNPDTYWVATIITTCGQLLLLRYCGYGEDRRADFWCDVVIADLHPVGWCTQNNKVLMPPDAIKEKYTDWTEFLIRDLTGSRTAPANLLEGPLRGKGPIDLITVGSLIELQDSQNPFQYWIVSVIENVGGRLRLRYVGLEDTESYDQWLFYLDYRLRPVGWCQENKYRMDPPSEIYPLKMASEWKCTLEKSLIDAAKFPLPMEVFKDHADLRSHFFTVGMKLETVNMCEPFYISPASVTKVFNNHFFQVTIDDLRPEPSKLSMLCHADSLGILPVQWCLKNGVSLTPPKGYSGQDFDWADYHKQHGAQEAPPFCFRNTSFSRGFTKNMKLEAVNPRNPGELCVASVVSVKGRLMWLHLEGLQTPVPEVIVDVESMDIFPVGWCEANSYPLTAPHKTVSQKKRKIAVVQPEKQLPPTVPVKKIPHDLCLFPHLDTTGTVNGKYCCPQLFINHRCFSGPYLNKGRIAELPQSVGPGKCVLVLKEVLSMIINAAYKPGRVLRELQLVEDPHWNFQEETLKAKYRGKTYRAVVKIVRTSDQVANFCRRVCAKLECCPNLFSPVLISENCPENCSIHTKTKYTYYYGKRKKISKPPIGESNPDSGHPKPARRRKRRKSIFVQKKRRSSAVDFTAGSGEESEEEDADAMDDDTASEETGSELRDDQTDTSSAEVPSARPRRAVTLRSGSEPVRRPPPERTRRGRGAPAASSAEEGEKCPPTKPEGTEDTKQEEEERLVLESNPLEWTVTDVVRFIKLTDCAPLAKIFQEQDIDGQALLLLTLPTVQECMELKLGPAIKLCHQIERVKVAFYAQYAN

Compound: Cc1cc(ccc1-c1ccccc1)C(=O)N1CCCN(CC1)C(=O)CCl [compound 10]
Assay: probe-labelled cysteine peptide fold change vs DMSO (competition) (log2 fold change); higher = less target engagement (more negative = stronger competition)
Settings: THP-1, incubation time: 4 h
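Note: competitive profiling in live THP-1 cells: cysteine peptides tagged with an iodoacetamide desthiobiotin (IA-DTB) probe, intensity after compound treatment relative to DMSO-treated cells.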

Target | probe-labelled cysteine peptide fold change (10 µM) | probe-labelled cysteine peptide fold change (50 µM)
SERPINB8_P50452_364+368_TNCILFCGR (UniProt P50452) | -0.229 | -0.331
SLC25A3_Q00325-2_75_YYALCGFGGVLSCGLTHTAVVPLDLVK (UniProt Q00325) | 0.0167 | -0.282
SHMT1_P34896_384_VLEACSIACNK (UniProt P34896) | -0.147 | -0.261
SLC27A4_Q6P1M0_560_AGMAAVASPTGNCDLER (UniProt Q6P1M0) | -0.03 | -0.0763
SERPINB8_P50452_59_GSTAAQMSQALCLYK (UniProt P50452) | 0.114 | 0.448
SETX_Q7Z333_2630_CDDPEEELCHR (UniProt Q7Z333) | -0.179 | -0.174
SFPQ_P23246_431_CSEGVFLLTTTPR (UniProt P23246) | 0.045 | 0.253
SIGLEC5_O15389_314_SAEEGGFTCR (UniProt O15389) | -0.0918 | -0.198
SH3PXD2B_A1X283_115_ALIQLPPYISQCDEVLQFFETRPEDLNPPKEEHIGK (UniProt A1X283) | -0.227 | -0.325
SLC25A12_O75746_563_AGQTTYSGVIDCFR (UniProt O75746) | 0.067 | 0.0966
SIN3A_Q96ST3_1063_AEQLMSDENCFK (UniProt Q96ST3) | 0.133 | 0.317
SHPRH_Q149N8_1229_NVIESATVCHLRPAR (UniProt Q149N8) | 0.0933 | 0.273
SLC17A5_Q9NRA2_83_ACPEHSAPIK (UniProt Q9NRA2) | -0.0974 | 0.078
SKP1_P63208_62_KVIQWCTHHK (UniProt P63208) | 0.13 | 0.23
SERPINB8_P50452_98_TCDFLPDFK (UniProt P50452) | -0.112 | -0.0335
SHCBP1_Q8NEM2_271_SSLSNCNSDSEQENISMVEGLK (UniProt Q8NEM2) | -0.214 | -0.317
SF3A1_Q15459_244_EVLDQVCYR (UniProt Q15459) | -0.258 | 0.023
SFXN2_Q96NB2_189_WVPFAAVAAANCVNIPMMR (UniProt Q96NB2) | -0.0553 | 0.123
SERPINB8_P50452_128_FYQAELEELSFAEDTEECR (UniProt P50452) | 0.135 | 0.484
SKA3_Q8IX90_126_NSVHEQEAINSDPELSNCENFQK (UniProt Q8IX90) | 0.068 | 0.391
SF3B3_Q15393_289_GMIFVCSATHK (UniProt Q15393) | 0.254 | 0.341

Target | probe-labelled cysteine peptide fold change (10 µM) | probe-labelled cysteine peptide fold change (50 µM)
SEPT6_Q14141_42_SVSQGFCFNILCVGETGLGK (UniProt Q14141) | 0.0157 | -0.0234
SKA3_Q8IX90_147_TDVKDDLSDPPVASSCISEK (UniProt Q8IX90) | -0.261 | -0.241
SLC12A4_Q9UP95_817_CTTAAHLALLVPK (UniProt Q9UP95) | 0.131 | 0.323
SLC25A1_P53007_70_GIGDCVR (UniProt P53007) | 0.0396 | 0.0551
SETDB1_Q15047_1207_QFYDGEESCYIIDAK (UniProt Q15047) | 0.0273 | 0.05
SETD2_Q9BYW2_1086_NSTLPMEETSPCSSR (UniProt Q9BYW2) | 0.21 | 0.505
SEPT8_Q92599_80_STLMNTLFNTTFETEEASHHEACVR (UniProt Q92599) | -0.0355 | -0.0172
SIN3A_Q96ST3_1063_KAEQLMSDENCFK (UniProt Q96ST3) | 0.12 | -0.177
SHKBP1_Q8TBC3_550_SVDGSPTTAFTVLECEGSR (UniProt Q8TBC3) | -0.0633 | -0.853
SLAIN2_Q9P270_152_SVSPLVWCR (UniProt Q9P270) | -0.073 | 0.0833
SLC19A1_P41440_220_CETSASELER (UniProt P41440) | -0.296 | -0.929
SETDB1_Q15047_731_GVFINTGPEFLVGCDCK (UniProt Q15047) | -0.198 | -0.149
SIL1_Q9H173_379_QVHLLPGLWEQGWCEITAHLLALPEHDAR (UniProt Q9H173) | -0.0637 | 0.625
SETX_Q7Z333_1416_CMPSEPETIK (UniProt Q7Z333) | -0.616 | -0.311
SLAIN2_Q9P270_165_QVLDYPSPDVECAK (UniProt Q9P270) | 0.0188 | -0.17
SHPK_Q9UHJ6_132_CSSEFLASLPQPK (UniProt Q9UHJ6) | -0.0796 | 0.128
SHMT2_P34897_80_GLELIASENFCSR (UniProt P34897) | 0.193 | 0.303
SETD2_Q9BYW2_1516_AQGEIACGEDCLNR (UniProt Q9BYW2) | -0.275 | -0.436
SFMBT2_Q5VUG0_511_KIPHDLCLFPHLDTTGTVNGK (UniProt Q5VUG0) | -0.167 | -0.164
SERPINB6_P35237_36_NVFFSPMSMSCALAMVYMGAK (UniProt P35237) | -0.224 | -0.399

Pulled one by one from the list above (three):
Target | probe-labelled cysteine peptide fold change (10 µM) | probe-labelled cysteine peptide fold change (50 µM)
SLC19A1_P41440_220_CETSASELER (UniProt P41440) | -0.296 | -0.929
SLC25A1_P53007_70_GIGDCVR (UniProt P53007) | 0.0396 | 0.0551
SETDB1_Q15047_1207_QFYDGEESCYIIDAK (UniProt Q15047) | 0.0273 | 0.05
